PubChem BioAssay AID1224830 | NIAID | 2016
Aim: 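Host factors that control LPS-induced TNF expression in human macrophages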 (primary screen). Cells: human THP-1 monocytic leukaemia cells, TNF dual-luciferase reporter clone, PMA-differentiated to macrophage-like cells. Reagent: siRNA pool against human genes, 50 nM. Duration: LPS for 4 h, given about 3 days after siRNA transfection. Challenge: bacterial LPS (TLR4 ligand), 10 ng/ml. Measured: 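Ratio of firefly to renilla light, scaled to the plate median and expressed as a robust z-score per replicate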. Reading the numbers: TNF reporter robust z-score: higher = stronger TNF reporter response to LPS. Hit rule: 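Each well counts as active if its z-score is over 2.8 or under -1.5; controls are left without a call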.
In all, the deposit lists about 18,000 reagents; below is an unselected part. In the full data, about 2,900 (16%) got an active call. 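Calls are made per well; low scores hint the gene aids the LPS response, high scores that it dampens it.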 A number with no mark means an inactive call. Repeated entries: four replicate wells of each siRNA pool. Reagent sequences are not shown.

Depletion of SRRM4 (serine/arginine repetitive matrix 4) [SID315460397] resulted in: TNF reporter robust z-score -0.8. After knock-down of SRRM4 (serine/arginine repetitive matrix 4) [SID315460397], the record shows TNF reporter robust z-score -0.95. Against SRRM4 (serine/arginine repetitive matrix 4) [SID315460397] the deposit lists TNF reporter robust z-score -1.17. Silencing of SRRM4 (serine/arginine repetitive matrix 4) [SID315460397] gave: TNF reporter robust z-score -0.69. Silencing of OR52E4 (olfactory receptor family 52 subfamily E member 4) [SID315464606] resulted in: TNF reporter robust z-score -0.32. For OR52E4 (olfactory receptor family 52 subfamily E member 4) [SID315464606] the deposit lists TNF reporter robust z-score -0.08.

With knock-down of OR52E4 (olfactory receptor family 52 subfamily E member 4) [SID315464606] the results were TNF reporter robust z-score -0.18. After knock-down of OR52E4 (olfactory receptor family 52 subfamily E member 4) [SID315464606], the screen gave TNF reporter robust z-score -0.78. After knock-down of SLC16A5 [SID315453058] the results were TNF reporter robust z-score -0.93. SLC16A5 [SID315453058] gave TNF reporter robust z-score -0.94. SLC16A5 [SID315453058] scored TNF reporter robust z-score -0.45. With knock-down of SLC16A5 [SID315453058] the results were TNF reporter robust z-score 0.67.

SLC25A34 [SID315463807] showed TNF reporter robust z-score 0.69. Depletion of SLC25A34 [SID315463807] came out at: TNF reporter robust z-score 2.44. Knock-down of SLC25A34 [SID315463807] came out at: TNF reporter robust z-score 1.81. Against SLC25A34 [SID315463807] the deposit lists TNF reporter robust z-score 1.67. After knock-down of TBC1D29P (TBC1 domain family member 29, pseudogene) [SID315455656], the screen gave TNF reporter robust z-score -1.41. Silencing of TBC1D29P (TBC1 domain family member 29, pseudogene) [SID315455656] gave: TNF reporter robust z-score -0.93.

TBC1D29P (TBC1 domain family member 29, pseudogene) [SID315455656] gave TNF reporter robust z-score -1.03. After knock-down of TBC1D29P (TBC1 domain family member 29, pseudogene) [SID315455656], the record shows TNF reporter robust z-score -1.13. KBTBD7 (kelch repeat and BTB domain containing 7) [SID315460182] scored TNF reporter robust z-score -0.97. Knock-down of KBTBD7 (kelch repeat and BTB domain containing 7) [SID315460182] gave: TNF reporter robust z-score -0.85. For KBTBD7 (kelch repeat and BTB domain containing 7) [SID315460182], the entry reads TNF reporter robust z-score -0.82. Depletion of KBTBD7 (kelch repeat and BTB domain containing 7) [SID315460182] came out at: TNF reporter robust z-score -0.83.

For BANF1 (barrier to autointegration nuclear assembly factor 1) [SID315452843], the entry reads TNF reporter robust z-score 2.75. Knock-down of BANF1 (barrier to autointegration nuclear assembly factor 1) [SID315452843] gave: TNF reporter robust z-score 1.46. For BANF1 (barrier to autointegration nuclear assembly factor 1) [SID315452843] the deposit lists TNF reporter robust z-score 2.7. After knock-down of BANF1 (barrier to autointegration nuclear assembly factor 1) [SID315452843], the screen gave TNF reporter robust z-score 0.57. SLC7A2 [SID315451480] gave TNF reporter robust z-score 0.71. With knock-down of SLC7A2 [SID315451480] the results were TNF reporter robust z-score 0.86.

Against SLC7A2 [SID315451480] the deposit lists TNF reporter robust z-score 0.41. With knock-down of SLC7A2 [SID315451480], the screen gave TNF reporter robust z-score 0.45. ZKSCAN2 (zinc finger with KRAB and SCAN domains 2) [SID315464131] scored TNF reporter robust z-score -0.51. Depletion of ZKSCAN2 (zinc finger with KRAB and SCAN domains 2) [SID315464131] came out at: TNF reporter robust z-score -0.32. ZKSCAN2 (zinc finger with KRAB and SCAN domains 2) [SID315464131] showed TNF reporter robust z-score -0.9. Silencing of ZKSCAN2 (zinc finger with KRAB and SCAN domains 2) [SID315464131] resulted in: TNF reporter robust z-score -1.05.

With knock-down of TRHDE (thyrotropin releasing hormone degrading enzyme) [SID315456243], the screen gave TNF reporter robust z-score 1.64. Against TRHDE (thyrotropin releasing hormone degrading enzyme) [SID315456243] the deposit lists TNF reporter robust z-score 0.73. Knock-down of TRHDE (thyrotropin releasing hormone degrading enzyme) [SID315456243] resulted in: TNF reporter robust z-score -0.27. For TRHDE (thyrotropin releasing hormone degrading enzyme) [SID315456243], the values are TNF reporter robust z-score -1.14. Knock-down of OR4X2 (olfactory receptor family 4 subfamily X member 2) [SID315461481] came out at: TNF reporter robust z-score 0.65. Depletion of OR4X2 (olfactory receptor family 4 subfamily X member 2) [SID315461481] resulted in: TNF reporter robust z-score 0.88.

OR4X2 (olfactory receptor family 4 subfamily X member 2) [SID315461481] gave TNF reporter robust z-score -0.3. Knock-down of OR4X2 (olfactory receptor family 4 subfamily X member 2) [SID315461481] gave: TNF reporter robust z-score 1.5. Against GCHFR (GTP cyclohydrolase I feedback regulator) [SID315448861] the deposit lists TNF reporter robust z-score 1.02. With knock-down of GCHFR (GTP cyclohydrolase I feedback regulator) [SID315448861], the screen gave TNF reporter robust z-score 0.09. For GCHFR (GTP cyclohydrolase I feedback regulator) [SID315448861] the deposit lists TNF reporter robust z-score 0.39. For GCHFR (GTP cyclohydrolase I feedback regulator) [SID315448861], the values are TNF reporter robust z-score 0.4.

Laid out differently: 7 of the entries above
gene,PubChem SID,TNF reporter robust z-score
OR4X2 (olfactory receptor family 4 subfamily X member 2),SID315461481,0.65
OR4X2 (olfactory receptor family 4 subfamily X member 2),SID315461481,0.88
OR4X2 (olfactory receptor family 4 subfamily X member 2),SID315461481,-0.3
OR4X2 (olfactory receptor family 4 subfamily X member 2),SID315461481,1.5
GCHFR (GTP cyclohydrolase I feedback regulator),SID315448861,1.02
GCHFR (GTP cyclohydrolase I feedback regulator),SID315448861,0.09
GCHFR (GTP cyclohydrolase I feedback regulator),SID315448861,0.39
